In the supplement of paper PMC8551327:
Structures can show the parent of a compound that is named as a salt. The list shows a part of the results. No stated cut-off is given here; in the data, active = 1.25 or more and inactive = the rest. Most values come without repeats; read them as rough.

Tested on: Kcc2-LUC knock-in mouse primary cortical neurons (Kcc2 promoter reporter)
Assay: Kcc2 promoter-driven luciferase activity relative to vehicle control (fold of vehicle (ratio)); higher = stronger Kcc2 promoter activation (Kcc2 expression enhancer)
Conditions: 100 nM; 48 h

Kcc2 promoter-driven luciferase activity, inactive:
Cc1ccc(C2NC(=O)c3ccccc3N2)s1 (stereo unspecified) [2-(5-Methylthiophen-2-yl)-2,3-dihydroquinazolin-4(1H)-one] 1.24
O=C1c2ccccc2C(=O)c2nc(-c3ccccc3)c(-c3ccccc3)nc21 [2,3-Diphenylbenzo[g]quinoxaline-5,10-dione] 0.95
O=C1OC(c2ccco2)=N/C1=C\c1ccc(Cl)c(Cl)c1 1.07
CNC1C(OC2C(OC3C(O)C(O)C(N=C(N)N)C(O)C3N=C(N)N)OC(C)C2(O)/C=N/NC(N)=S)OC(CO)C(O)C1O (stereo unspecified) 0.79
COC1/C=C/OC2(C)Oc3c(C)c(O)c4c(c3C2=O)C(=O)C=C(NC(=O)/C(C)=C\C=C\C(C)C(OC=O)C(C)C(O)C(C)C(OC(C)=O)C1C)C4=O (stereo unspecified) [1. Rifamycin,4-dideoxy-1,4-dihydro-1,4-dioxo-, 21-formate] 1.08
COc1cc(/C=C(\OC(C)=O)c2ccc3c(c2)OCO3)cc(OC)c1OC 0.98
CC(=O)N(C)c1ccc(Nc2cc(C)[nH]c3ccc4ncnc4c23)cc1 [Acodazole hydrochloride] 1.1
N[C@H](C(=O)O)[C@@H]1CC(Cl)=NO1 [Acivicin] 1.17
NC(=O)CCC(NC(=O)Cc1ccccc1)C(=O)O (stereo unspecified) [Antineoplaston AS2-1] 0.78
O=c1ccc2ccc(CBr)cc2o1 [7-(Bromomethyl)-2h-chromen-2-one] 1.16
Nc1nccc2c1ncn2C1C=C(CO)C(O)C1O (stereo unspecified) [3-Deazaneplanocin, hydrochloride] 0.96
